Data taken from the supplement of paper PMC9744312.
Counter-ions that a name gives are not always drawn. The list shows a part of the results. Single values of this set are uncertain.

What follows are compounds tested on Peyronie's disease tunica albuginea primary fibroblasts (assay: cell viability (DRAQ5 nuclear stain) relative to TGF-beta1-only control; higher = more viable cells). Conditions: 10 µM; TGF-beta1 10 ng/mL; 72 h.

Row | Compound | cell viability
1 | CC[C@H]1OC(=O)[C@H](C)[C@@H](O[C@H]2C[C@@](C)(OC)[C@@H](O)[C@H](C)O2)[C@H](C)[C@@H](O[C@@H]2O[C@H](C)C[C@H](N(C)C)[C@H]2O)[C@](C)(O)C[C@@H](C)C(=O)[C@H](C)[C@@H](O)[C@]1(C)O [Erythromycin thiocyanate] | 82.7%
2 | CC[C@H]1OC(=O)[C@H](C)[C@@H](O[C@H]2C[C@@](C)(OC)[C@@H](O)[C@H](C)O2)[C@H](C)[C@@H](O[C@@H]2O[C@H](C)C[C@H](N(C)C)[C@H]2O)[C@](C)(O)C[C@@H](C)C(=O)[C@H](C)[C@@H](O)[C@]1(C)O [Erythromycin] | 59.3%
3 | CC(C(=O)O)c1ccc(CC2CCCC2=O)cc1 (configuration not stated) [Loxoprofen Sodium] | 99.5%
4 | CC(C(=O)O)c1ccc(CC2CCCC2=O)cc1 (configuration not stated) [Loxoprofen] | 86.5%
5 | COc1cccc(-c2c(C)n(Cc3c(F)cccc3C(F)(F)F)c(=O)n(C[C@H](NCCCC(=O)O)c3ccccc3)c2=O)c1F [Elagolix Sodium] | 85.9%
6 | CC1=C(/C=C/C(C)=C/C=C/C(C)=C/C=C/C=C(C)/C=C/C=C(C)/C=C/C2=C(C)CCCC2(C)C)C(C)(C)CCC1 [Beta Carotene] | 91.2%
7 | CO[C@H]1/C=C/O[C@@]2(C)Oc3c(C)c(O)c4c(O)c(c(/C=N/N5CCN(C)CC5)c(O)c4c3C2=O)NC(=O)/C(C)=C\C=C\[C@H](C)[C@H](O)[C@@H](C)[C@@H](O)[C@@H](C)[C@H](OC(C)=O)[C@@H]1C [Rifampin] | 83.1%
8 | CCCSc1ccc2[nH]c(NC(=O)OC)nc2c1 [Albendazole] | 59.6%
9 | Cc1c(Cl)cccc1Nc1ccccc1C(=O)O [Tolfenamic Acid] | 89.1%
10 | CC(C)Nc1cc(-c2c[nH]c(C(=O)N[C@H](CO)c3cccc(Cl)c3)c2)c(Cl)cn1 | 63.4%
11 | Cc1ccc(N(CC2=NCCN2)c2cccc(O)c2)cc1 [Phentolamine Mesylate] | 95.3%
12 | CNC[C@@H](O)c1ccc(O)c(O)c1 [L-Adrenaline] | 107%
13 | CCc1ccc(CCOc2ccc(CC3SC(=O)NC3=O)cc2)nc1 (configuration not stated) [Pioglitazone] | 105%
14 | CCc1ccc(CCOc2ccc(CC3SC(=O)NC3=O)cc2)nc1 (configuration not stated) [Pioglitazone HCl] | 95.8%
15 | Cc1c(C(C)C)c(=O)n(-c2ccccc2)n1C [Propyphenazone (4-Isopropylantipyrine)] | 98.8%
16 | C[C@H](N[C@@H](CCc1ccccc1)C(=O)O)C(=O)N1CCC[C@H]1C(=O)O [Enalaprilat Dihydrate] | 96.7%
17 | NC(=O)N1CCC(CC(=O)N2CCC([C@H]3c4ncc(Br)cc4CCc4cc(Cl)cc(Br)c43)CC2)CC1 [Lonafarnib] | 90.7%
18 | CN(C)[C@@H]1C(O)=C(C(N)=O)C(=O)[C@@]2(O)C(O)=C3C(=O)c4c(O)cccc4[C@@](C)(O)[C@H]3C[C@@H]12 [Tetracycline HCl] | 75.7%
19 | COCCCC/C(=N\OCCN)c1ccc(C(F)(F)F)cc1 [Fluvoxamine maleate] | 85.7%
20 | COC(=O)[C@H](c1ccccc1Cl)N1CCc2sccc2C1 [Clopidogrel] | 90.3%
21 | CNC[C@H](O)[C@@H](O)[C@H](O)[C@H](O)CO.CNC[C@H](O)[C@@H](O)[C@H](O)[C@H](O)CO.O=C([O-])CN(CCN(CC(=O)[O-])CC(=O)O)CCN(CC(=O)[O-])CC(=O)O.[Gd+3] [Gadopentetate Dimeglumine] | 87.3%
22 | Nc1nc(F)nc2c1ncn2[C@@H]1O[C@H](COP(=O)(O)O)[C@@H](O)[C@@H]1O [Fludarabine Phosphate] | 89.6%
23 | Oc1c(Br)cc(Br)c2cccnc12 [Broxyquinoline] | 103%
24 | CS(=O)(=O)c1ccc(C(=O)Nc2ccc(Cl)c(-c3ccccn3)c2)c(Cl)c1 [Vismodegib (GDC-0449)] | 104%

Looked up above:
Value of CCc1ccc(CCOc2ccc(CC3SC(=O)NC3=O)cc2)nc1 (configuration not stated) [Pioglitazone HCl] under cell viability: 95.8%
Value of CNC[C@H](O)[C@@H](O)[C@H](O)[C@H](O)CO.CNC[C@H](O)[C@@H](O)[C@H](O)[C@H](O)CO.O=C([O-])CN(CCN(CC(=O)[O-])CC(=O)O)CCN(CC(=O)[O-])CC(=O)O.[Gd+3] [Gadopentetate Dimeglumine] under cell viability: 87.3%

Going on with the list:

Row | Compound | cell viability
25 | CC(C)C[C@H](NC(=O)[C@H](Cc1ccccc1)NC(=O)c1cnccn1)B(O)O [Bortezomib (PS-341)] | 31.4%
26 | CN1CCN(C2=Nc3ccccc3Oc3ccc(Cl)cc32)CC1 [Loxapine Succinate] | 83.4%
27 | NCc1ccccc1CC(=O)N[C@@H]1C(=O)N2C(C(=O)O)=C(CSc3nnnn3CC(=O)O)CS[C@H]12 [Ceforanide] | 98%
28 | N=C(NCCCCCCNC(=N)NC(=N)Nc1ccc(Cl)cc1)NC(=N)Nc1ccc(Cl)cc1 [Chlorhexidine] | 69.1%
29 | CCOC(=O)[C@@H](N)Cc1ccc(-c2cc(O[C@H](c3ccc(Cl)cc3-n3ccc(C)n3)C(F)(F)F)nc(N)n2)cc1 [Telotristat Etiprate (LX 1606 Hippurate)] | 92.4%
30 | C[N+]1(C)CCC(OC(=O)C(O)(c2ccccc2)C2CCCC2)C1 (configuration not stated) [Glycopyrrolate] | 87.6%
31 | N[C@@H](CCC(=O)O)C(=O)[O-].[Na+] [L-Glutamic acid monosodium salt] | 92.6%
32 | N#Cc1ccc(C(c2ccc(C#N)cc2)n2cncn2)cc1 [Letrozole] | 102%
33 | Clc1ccc(CCC(Cn2ccnc2)Sc2c(Cl)cccc2Cl)cc1 (configuration not stated) [Butoconazole nitrate] | 87.8%
34 | Clc1ccc(CCC(Cn2ccnc2)Sc2c(Cl)cccc2Cl)cc1 (configuration not stated) [Butoconazole] | 79.9%
35 | C[C@@H]1C[C@H]2[C@@H]3C[C@H](F)C4=CC(=O)C=C[C@]4(C)[C@@]3(F)[C@@H](O)C[C@]2(C)[C@@]1(O)C(=O)CO [Flumethasone] | 82.6%
36 | O=C(NC[C@H]1CN(c2ccc(N3CCOCC3=O)cc2)C(=O)O1)c1ccc(Cl)s1 [Rivaroxaban] | 97.9%
37 | O=C(O)c1cn(-c2ccc(F)cc2)c2cc(N3CCNCC3)c(F)cc2c1=O [Sarafloxacin HCl] | 90.2%
38 | Cc1nnc(C(=O)NC(C)(C)c2nc(C(=O)NCc3ccc(F)cc3)c(O)c(=O)n2C)o1 [Raltegravir (MK-0518)] | 104%
39 | Cc1nnc(C(=O)NC(C)(C)c2nc(C(=O)NCc3ccc(F)cc3)c(O)c(=O)n2C)o1 [Raltegravir potassium] | 97%
40 | O=C1c2c(O)cccc2Cc2cccc(O)c21 [Dithranol] | 84.5%
41 | Nc1c(CC(=O)O)cccc1C(=O)c1ccccc1 [Amfenac Sodium Monohydrate] | 106%
42 | CC(=O)Oc1ccccc1C(=O)Nc1ncc([N+](=O)[O-])s1 [Nitazoxanide] | 60.4%
43 | CCCCC(O)c1ccccc1 (configuration not stated) [Fenipentol] | 80.5%
44 | CCCCOCCOCCOCc1cc2c(cc1CCC)OCO2 [Piperonyl butoxide] | 87.8%
45 | CCN(CC)CCOC(=O)C1(C2CCCCC2)CCCCC1 [Dicyclomine HCl] | 88.6%
46 | NS(=O)(=O)c1cc(C2(O)NC(=O)c3ccccc32)ccc1Cl (configuration not stated) [Chlorthalidone] | 88.6%
47 | CCN[C@H]1CN(CCCOC)S(=O)(=O)c2sc(S(N)(=O)=O)cc21 [Brinzolamide] | 95%
48 | CC(C)c1c(C(=O)Nc2ccccc2)c(-c2ccccc2)c(-c2ccc(F)cc2)n1CC[C@@H](O)C[C@@H](O)CC(=O)O [Atorvastatin Calcium] | 59%

Row | Compound | cell viability
49 | Cc1ncc(C[n+]2csc(CCO)c2C)c(N)n1 [Thiamine HCl (Vitamin B1)] | 83.5%
50 | CC(=O)OCC(=O)[C@@]1(O)CC[C@H]2[C@@H]3CCC4=CC(=O)CC[C@]4(C)[C@H]3[C@@H](O)C[C@@]21C [Hydrocortisone acetate] | 80.4%
51 | FC(F)(F)C(Cl)Br (configuration not stated) [Halothane] | 88.5%
52 | Cc1ccc(C(=O)c2ccc(CC(=O)O)n2C)cc1 [Tolmetin Sodium] | 98%
53 | Cc1ccc(C(=O)c2ccc(CC(=O)O)n2C)cc1 [Tolmetin] | 90.5%
54 | O=C(O)CCCCCCCC(=O)O [Azelaic acid] | 81.3%
55 | CC(=O)OCC(=O)[C@@]1(O)CC[C@H]2[C@@H]3CCC4=CC(=O)CC[C@]4(C)[C@@]3(F)[C@@H](O)C[C@@]21C [Fludrocortisone acetate] | 86%
56 | OCCN1CCN(CC/C=C2/c3ccccc3Sc3ccc(C(F)(F)F)cc32)CC1 [Flupenthixol dihydrochloride] | 79.3%
57 | C[C@@H](O)[C@H]1C(=O)N2C(C(=O)O)=C([C@H]3CCCO3)S[C@H]12 [Faropenem Sodium] | 94.3%
58 | Cc1cn[nH]c1 [Fomepizole] | 94.8%
59 | OC(Cn1cncn1)(Cn1cncn1)c1ccc(F)cc1F [Fluconazole] | 87.3%
60 | NCCc1c[nH]cn1 [Histamine 2HCl] | 98.3%
61 | NCCc1c[nH]cn1 [Histamine] | 91.9%
62 | NCCc1c[nH]cn1 [Histamine Phosphate] | 93.9%
63 | N=C1CCCN1Cc1[nH]c(=O)[nH]c(=O)c1Cl [Tipiracil hydrochloride] | 95.9%
64 | Nc1[nH]cnc2ncnc1-2 [Adenine HCl] | 91.3%
65 | Nc1[nH]cnc2ncnc1-2 [Adenine sulfate] | 104%
66 | C[C@@H](NCCCc1cccc(C(F)(F)F)c1)c1cccc2ccccc12 [Cinacalcet HCl] | 80%
67 | CC(=O)Nc1cccc(-n2c(=O)n(C3CC3)c(=O)c3c(Nc4ccc(I)cc4F)n(C)c(=O)c(C)c32)c1 | 59.3%
68 | CN1CCC(=C2c3ccccc3C=Cc3ccccc32)CC1 [Cyproheptadine HCl] | 75.9%
69 | CN1CCC(=C2c3ccccc3C=Cc3ccccc32)CC1 [Cyproheptadine hydrochloride] | 73%
70 | CC(C)Oc1ccc(-c2nc(-c3cccc4c3CC[C@@H]4NCCO)no2)cc1C#N [Ozanimod (RPC1063)] | 88.2%
71 | N=C(N)NC(=N)NCCc1ccccc1 [Phenformin HCl] | 91.4%
72 | CO[C@H]1/C=C/O[C@@]2(C)Oc3c(C)c(O)c4c(O)c(c(/C=N/N5CCN(C6CCCC6)CC5)c(O)c4c3C2=O)NC(=O)/C(C)=C\C=C\[C@H](C)[C@H](O)[C@@H](C)[C@@H](O)[C@@H](C)[C@H](OC(C)=O)[C@@H]1C [Rifapentine] | 79.9%

In a second layout: entries from further up.

| Row | Compound | cell viability |
| --- | --- | --- |
| 54 | O=C(O)CCCCCCCC(=O)O [Azelaic acid] | 81.3% |
| 55 | CC(=O)OCC(=O)[C@@]1(O)CC[C@H]2[C@@H]3CCC4=CC(=O)CC[C@]4(C)[C@@]3(F)[C@@H](O)C[C@@]21C [Fludrocortisone acetate] | 86% |
| 56 | OCCN1CCN(CC/C=C2/c3ccccc3Sc3ccc(C(F)(F)F)cc32)CC1 [Flupenthixol dihydrochloride] | 79.3% |
| 57 | C[C@@H](O)[C@H]1C(=O)N2C(C(=O)O)=C([C@H]3CCCO3)S[C@H]12 [Faropenem Sodium] | 94.3% |
| 58 | Cc1cn[nH]c1 [Fomepizole] | 94.8% |
| 59 | OC(Cn1cncn1)(Cn1cncn1)c1ccc(F)cc1F [Fluconazole] | 87.3% |
| 60 | NCCc1c[nH]cn1 [Histamine 2HCl] | 98.3% |
| 61 | NCCc1c[nH]cn1 [Histamine] | 91.9% |
| 62 | NCCc1c[nH]cn1 [Histamine Phosphate] | 93.9% |
| 63 | N=C1CCCN1Cc1[nH]c(=O)[nH]c(=O)c1Cl [Tipiracil hydrochloride] | 95.9% |
| 64 | Nc1[nH]cnc2ncnc1-2 [Adenine HCl] | 91.3% |
| 65 | Nc1[nH]cnc2ncnc1-2 [Adenine sulfate] | 104% |
| 66 | C[C@@H](NCCCc1cccc(C(F)(F)F)c1)c1cccc2ccccc12 [Cinacalcet HCl] | 80% |
| 67 | CC(=O)Nc1cccc(-n2c(=O)n(C3CC3)c(=O)c3c(Nc4ccc(I)cc4F)n(C)c(=O)c(C)c32)c1 | 59.3% |
| 68 | CN1CCC(=C2c3ccccc3C=Cc3ccccc32)CC1 [Cyproheptadine HCl] | 75.9% |
| 69 | CN1CCC(=C2c3ccccc3C=Cc3ccccc32)CC1 [Cyproheptadine hydrochloride] | 73% |
| 70 | CC(C)Oc1ccc(-c2nc(-c3cccc4c3CC[C@@H]4NCCO)no2)cc1C#N [Ozanimod (RPC1063)] | 88.2% |
| 71 | N=C(N)NC(=N)NCCc1ccccc1 [Phenformin HCl] | 91.4% |
| 72 | CO[C@H]1/C=C/O[C@@]2(C)Oc3c(C)c(O)c4c(O)c(c(/C=N/N5CCN(C6CCCC6)CC5)c(O)c4c3C2=O)NC(=O)/C(C)=C\C=C\[C@H](C)[C@H](O)[C@@H](C)[C@@H](O)[C@@H](C)[C@H](OC(C)=O)[C@@H]1C [Rifapentine] | 79.9% |
